# Experimental data published in PubChem BioAssay AID1508600 (Functional Genomics Laboratory (NCATS/FGL), 2020).
# In all, about 53,000 sequences went through this assay and about 3,700 (7%) were called active.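 How the source made its calls: active means gene knockdowns whose robust z-score for IL-1 alpha signal is at least 2 or at most -2, so actives lie on both sides; inactive means the rest.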 The list shows a part of the results.
# Assay: Components of the Cytosolic LPS Sensing Pathway: Gene Identification via Genome-wide siRNA Screen;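 further: robust z of the log signal after scaling to non-targeting control siRNA wells of the plate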
# Details: RAW264.7 macrophages, IL-1a HTRF, actives lie on both sides, screened at 100 nM (by protocol), cells primed 5 h with Pam3CSK4 first
# How it was run: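 Cells (RAW264.7, 1×10^4 per well) were transfected with siRNA at 100 nM and cultured 48h at 37 degrees C. Pam3CSK4 was added for 5 hours; LipidA transfection followed for 24 hour. IL-1a was then measured by HTRF.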
row,Sequence,z-score
1,GGGAUUGGUUAUUUUACAUTT against Trmt12,inactive: -0.578
2,GGAAUUAAGAAGACAAUUCTT against Emc2,inactive: -1.22
3,GGCCAAGAGGAUCAUGUCATT against Iqcd,inactive: -0.908
4,GGCCAUGAAAUGAAUUUCUTT against 2410141K09Rik,inactive: 0.711
5,GCACUGUGGUCCAUACUACTT against Olfr1002,inactive: 0.844
6,UCGCGUCCGCUAGAAUGUUTT against Rragb,inactive: -1.61
7,GGGUAGUUUUAAUUAAGCCTT against Lims1,inactive: 1.08
8,GCUCAUGAAACUUUUGAACTT against Sik1,inactive: -0.279
9,GGAGGAUGAGGAUUUUGAUTT against Spsb3,active: 2.16
10,CCUCUUAUCUCGAACAUUATT against Dsn1,inactive: 0.95
11,CCAGAACGCGGAGCAAAUUTT against Sec63,active: 2.13
12,CCACUUCCAUAGAGAUUUUTT against Tmx3,active: 2.93
13,GCUGAAAACUAUGAUGGCCTT against Nfkbib,inactive: 0.564
14,AACCUAACCAUUAUCCUCCTT against Olfr803,inactive: 0.074
15,GGAGUGGGAAUCUUUGAAATT against Cenpp,inactive: -0.689
16,CAUUUCGCCCUGGAUAGUGTT against Olfr523,inactive: -0.408
17,GGGAAAGAGAUACAAUGACTT against Prl2b1,inactive: 0.497
18,GCUUACUACCAUUGGGAAUTT against Samt2,inactive: 1.65
19,GGCUUGGAUUUUGAAAUACTT against Srcin1,inactive: -0.792
20,GAAAUAUUUCUCAUCCUUGTT against Upk1b,inactive: 0.162
21,GGCAACCAGAUAUUUGUUATT against Myef2,inactive: 0.549
22,GGAUGCUUUACCAAUGGUUTT against Mbtps2,inactive: -0.374
23,GCCCGAUUAAAAUAAAUUGTT against Arih2,inactive: 0.636

row,Sequence,z-score
1,CCUGUGAGGCCAUUGAUUCTT against Acsbg1,inactive: -1.33
2,GGAGUUUGUGUUCCUGACGTT against Chst10,inactive: -0.000128
3,GCAAAUUGUAUUAUAGAGCTT against Foxo1,inactive: -0.0105
4,CCAGCUAAUUACUCAGCCUTT against Lyzl4,inactive: 0.883
5,GGUUCUAUGUUGACAAUCATT against Osgin2,inactive: 0.621
6,GCAAGGACUCUCAUGGUUGTT against Zfand1,inactive: -0.0357
7,GGUUACCUGUGCUAGAAAATT against Zswim5,inactive: -0.519
8,GACACUACUCACAUCAGAUTT against Hes3,inactive: 0.777
9,GGGCAAUUUGGAGCUUACCTT against Erbb2,inactive: -0.952
10,GCUCCAAGUCAAGGAAAAUTT against Traf3ip3,inactive: 0.145
11,GGCUAUGAGUGCCAUAUCCTT against Wfdc1,inactive: 1.96
12,GGUGAAGAGUUCAAACAUCTT against Atp9a,inactive: 1.29
13,GGAAUUCGCCAACUGGCUGTT against Slc14a1,inactive: -0.135
14,GGAGAACACGCUCAGAAGATT against Lce1g,inactive: -0.601
15,GGUGAUCAGCAUGGUGGGUTT against Pold1,inactive: 0.208
16,GGGAAGAGCGCAUAGAUACTT against Clca3a2,inactive: 0.622
17,GGUGUAACUCCUUCAUUGATT against Ripor2,active: -3.12
18,GGCAAUGGUUCAGAGGACUTT against Abhd11,inactive: -1.23
19,CCUGCUAUGUAAUAUAGAUTT against Eef2k,inactive: 0.0542
20,GGACGAGAACAUCUUAAUCTT against Pim1,inactive: 1.58
21,GGCAGGCAGACGAAUGUUCTT against Tbx1,inactive: -1.09
22,GGUCCUUAAGUCCUUUGACTT against Cdr1os,inactive: 0.894
23,GCGAACCAAAAUUGAGUUUTT against Sap30bp,inactive: -0.0609

# As a working copy, some entries already given:
row,Sequence,z-score
3,GCAAAUUGUAUUAUAGAGCTT against Foxo1,inactive: -0.0105
4,CCAGCUAAUUACUCAGCCUTT against Lyzl4,inactive: 0.883
5,GGUUCUAUGUUGACAAUCATT against Osgin2,inactive: 0.621

# Remaining list, next part:

row,Sequence,z-score
1,GGUAUUACCACGACAGGUATT against Usp42,inactive: -0.0157
2,CCGCUAAACUUCCAUAACCTT against Rnf123,inactive: 1.06
3,GGGUAGGAUUCCAGAACAUTT against Arid2,inactive: 0.787
4,GCUAUUGCCAACCAAGUCUTT against A730045E13Rik,inactive: -1.87
5,GGACUUGAGAGCAUUUGUGTT against Procr,inactive: -0.314
6,GGCUCAGAUUCUCAACAGATT against Emx2,inactive: -1.67
7,CCCGUAUCUUUUUAGCUAATT against A630038E17Rik,inactive: 0.35
8,GGUUUAUUGACAAGAAGGATT against Atg14,inactive: 0.331
9,GGAAAACUUCCAUAAAGAGTT against Bin1,inactive: -0.42
10,GGCUUAUAAAAUUCGGUCATT against Olig1,inactive: 0.962
11,GGAAGAGUCAAUUUUGAUGTT against Gfpt1,inactive: 0.49
12,GCCGAUUACUAUCCCGAGATT against Rasgef1c,inactive: -0.507
13,CGUUAUAAUGCAUACUGUUTT against Fbn1,inactive: -0.931
14,GGAUUCAUCACUGACUACATT against Ddc,inactive: -0.654
15,GCAAGUCACGAAAGAAGAGTT against Ttll4,inactive: 0.62
16,GCGUGAAGACAACAAGCAGTT against Myo1c,inactive: -0.0758
17,GGACUCAUGAAAUCAUACCTT against Spry1,inactive: 0.0325
18,GGUUCCAUGUGACAGUAGCTT against Dok7,inactive: -0.0194
19,GGCACAACAACUUGAAUGGTT against Man2c1,inactive: -1.28
20,GGUGAUGAAAGGGAAUGGCTT against Rnf25,active: -2.53
21,GGAGCAUUUAAGGUUUACUTT against Marchf5,inactive: 0.942
22,GGAUUUGUUACGGUAGUUUTT against Slc30a9,inactive: -0.0677
